Assay results as given in PubChem BioAssay AID1508600 (Functional Genomics Laboratory (NCATS/FGL), 2020).
About 3,700 (7%) of roughly 53,000 sequences were called active.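 Rule for the calls: active = gene knockdowns whose robust z-score for IL-1 alpha signal is at least 2 or at most -2, so actives lie on both sides; inactive = the rest.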 The list shows a part of the results.

Assay: Components of the Cytosolic LPS Sensing Pathway: Gene Identification via Genome-wide siRNA Screen;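 note: robust z of the log signal after scaling to non-targeting control siRNA wells of the plate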
Conditions: RAW264.7 macrophages, IL-1a HTRF, actives lie on both sides, screened at 100 nM (by protocol), cells primed 5 h with Pam3CSK4 first
Procedure, shortened: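 RAW264.7; siRNA 100 nM final, RNAiMAX, 48h 37 degrees C; Pam3CSK4 5 h; LipidA + TransIT-TKO 24 h; IL-1a HTRF; CellTiter-Glo viability; robust z vs negative-control median.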

Sequence	z-score
GGCCGACAUAAAGAAAUCATT against Nol7	inactive: -0.744
GGUCUCAAUGCCCAUCAUATT against Sqle	inactive: 0.141
GGCUUCACAAGCCAAAAGUTT against Gabrg2	inactive: -0.515
GGCCACAAACAACCUAACATT against Nme6	inactive: -1.43
CCACCUAAUUUCCUAGAUCTT against Rtp1	inactive: 0.255
GGCUGUCACCCUACAUGACTT against Uba1	inactive: 0.0469
GGUCAUCUUCCUUUUUGCUTT against Olfr1501	inactive: -1
GGCAUUUCUUCUUCUUCACTT against Ms4a3	inactive: -1.67
GCCGUACAACAAUGAAUAUTT against Pcdh20	inactive: -0.0167
GCUACAGUUCAGGGACUUGTT against Leng9	inactive: 0.829
CCAGCGAUCUUCCCAUUCUTT against Ccr8	inactive: -0.844
GGACCGCUUCAAAACUGGUTT against Hcrtr2	inactive: 0.276
GGAACUCUUUUCCUAAAAUTT against Slco1a5	inactive: -0.838
CCACAUUUUGGCCUAUCAGTT against Mtx2	inactive: -1.3
GGCAUGUUCAUGUUCACUATT against Lrrc26	inactive: -1.63
GGUAGAGGCAAGAAAUUCATT against Slc5a5	inactive: 0.811
GGCUAGAGUUCACGUUGGATT against Mrps26	inactive: -0.487
CCUGCUAAUUUCAAGUGUATT against Abcg3	inactive: 0.475
GGGUAAAGAGCUUCUUCCATT against Ahrr	inactive: -0.0768
GGAACAGGUAGUUUGGGAATT against Slco6b1	inactive: 1.26
GGAACAACAUGUUCAAGAUTT against Ocrl	inactive: -0.108
GGACGAUUCUUUUCUCCAGTT against Surf1	active: -2.07
GCAUACCUCCGUAUUGUGATT against Snx30	inactive: -0.868

Sequence	z-score
GGCAUAACGAUGGGAAACATT against Insig2	inactive: 0.62
GGGACAUUAAGUGAUUUGUTT against Fbxo30	inactive: -0.271
GCUGGACUCACAUUUCAGUTT against Fam228a	inactive: -1.28
GGAACAAUGCCAGAAGUGUTT against Cul7	inactive: -1.87
CCAUGUUACGGAUUAUCUATT against Wdr24	inactive: 3.9e-05
GUGGCUUCAGAUCUCUGAATT against Krtap13	inactive: -0.394
GGUUGCUUUUCUCUUUGAATT against 4921536K21Rik	inactive: -0.996
GCAACAUAUGUUCAAGAUCTT against Ccdc163	inactive: 0.53
GGCCUUGAUCCAAAAGUGGTT against Cyp21a1	inactive: -0.418
GGCGGAGUUAAAUUUUCUGTT against Pcdhgb6	inactive: 0.613
CCUGACCAAGCUUGCUUGGTT against Taz	inactive: -0.63
GGCGUGGCAACAUGGACAATT against Tmem98	inactive: 1.76
GCUUCUGAAUUCCUACUUGTT against Dtymk	inactive: 0.759
GGGCCAUGCCAACAUAGUATT against Gabpb1	inactive: -0.0381
CGGUAAUCUUAUGACAACUTT against Gpc6	inactive: 1.06
CCUGGUAUAGAGUGAAAUCTT against 4930522H14Rik	inactive: -0.686
GGCUUAUUGGAAGAGGACGTT against Ier5	inactive: 0.559
CCUAGAGACCCAUUCUCUATT against 2210409E12Rik	inactive: 1.7
GGCCAAACAGUUAUCUGAATT against AI182371	inactive: -1.71
GGCUGAGAACAUCAAAAAATT against Folh1	inactive: 0.816
GCUGUGCUUACAUGUUUACTT against Rpn2	inactive: -0.494
GGUAUUAAGUAGGUGUUAATT against Sec22c	inactive: 0.274
CGGAUUCUUUUCUAAAGUGTT against Lox	inactive: 0.743

Sequence	z-score
GCCUUCGACAGUUUCUAGATT against Gpr162	inactive: 0.322
GCCUCAUCGUUGCUGACUATT against Pde3b	active: -2.04
GGAUAAGAUCCGACUAUUCTT against Evc2	inactive: 0.227
GGAACACACUAAAAUUCGATT against Cyp17a1	inactive: -0.183
GGUCGAACAUUUAAACUCUTT against Ifit3	inactive: -0.492
GCUUUUAAGAUCUCCCUCCTT against Gtf2h3	inactive: 0.308
GGUAACUGUGGACUUAUCUTT against Olfr665	active: -2.17
GCUCAGCAAUACUUCCUACTT against Itgal	inactive: -0.188
GGAGCUAUUUUAGAUUAUGTT against Ankrd13a	inactive: 1.12
CCCAGGAGAUCCAUAUCAATT against Pgghg	inactive: -0.914
GGGUGUCAACCCUUUAGAUTT against C130026I21Rik	inactive: 0.685
GGCCAUCACUAAAUAAUGGTT against Ctdspl2	inactive: -0.123
GGAAGUGGAAAAAGUUUAGTT against Brip1	inactive: 0.442
GGUAUUAAAUGCUAUGCUGTT against Srp54a	inactive: -0.923
GAAAGAAACCAUGUUCACATT against Lce1l	inactive: 1.36
CCCAUGAUAAUGAAUUAGCTT against Olfr378	inactive: -0.537
GGAAAAGGAUGAUUAUGAATT against Son	inactive: -1.66
GGGCCUAUGCUUACAAACGTT against Pkp3	active: 2.37
GGCCAGCAAACAGUUUCUATT against Adgrb1	inactive: -0.174
CGGACAUUGUUCUGUUUUCTT against Por	inactive: 0.843
UAGUCAUCUUCACUCUCCUTT against Olfr1249	inactive: -0.907
GGUUUUUCUGUCAAGUGCUTT against Lgr5	inactive: -0.303

An excerpt of these results, with each value named:
GCCUUCGACAGUUUCUAGATT against Gpr162
  z-score: inactive: 0.322
CCCAUGAUAAUGAAUUAGCTT against Olfr378
  z-score: inactive: -0.537
GGUUUUUCUGUCAAGUGCUTT against Lgr5
  z-score: inactive: -0.303
